According to the supplement of paper PMC12889115:
Some of the results follow. Values are raw readings; no control value is given beside them.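 First-pass screen: polymyxin B was added at a level that permeabilizes the Salmonella outer membrane while sparing the inner membrane. DMSO wells, with and without polymyxin B, defined maximum growth. Because plates differed from one another, each plate's data were ranked separately and the compounds with the lowest OD600 were carried forward as hits.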

Test system: Salmonella enterica serovar Typhimurium SL1344
Assay: bacterial growth OD600 after 18 h with compound and polymyxin B; higher = more bacterial growth (less inhibition)
Conditions: 50 µM, Mueller-Hinton broth

Row | Compound | bacterial growth OD600 (polymyxin B 0.75 µg/mL) | bacterial growth OD600 (polymyxin B 1 µg/mL)
1 | COc1cccc(-c2noc(-c3ccc(NCc4ccc(C)o4)nc3)n2)c1OC | 0.523 | 
2 | c1ccc(CCN2CCC(C3CCN(Cc4ccccn4)CC3)C2)cc1 (stereo unspecified) | 0.878 | 
3 | C=C(C)CN(C)C(=O)Cc1c2c(n(Cc3ccccc3F)c1C)CCCC2=O |  | 0.656
4 | COc1ccc(CNC(=O)CCN2Cc3ccccc3OC(c3ccccc3F)C2)cc1OC (stereo unspecified) | 0.662 | 
5 | C=CCOc1cccc(C(=O)N2CCCC(Nc3ccc(F)cc3)C2)c1 (stereo unspecified) |  | 0.726
6 | COCCn1cc(C(=O)NC2CCCCCCC2)c(=O)c(C(=O)N2CCCC(C)C2)c1 (stereo unspecified) | 0.976 | 
7 | Cc1ccccc1CN1CCC(N2CCCC(C(=O)NC3CC3)C2)CC1 (stereo unspecified) | 0.849 | 
8 | CCC(=O)NC(C)c1cnc(N(C)C2CCCCC2)nc1C (stereo unspecified) |  | 0.888
9 | Cc1cccc(CN2CCCC3(CCN(S(=O)(=O)N(C)C)C3)C2=O)c1 (stereo unspecified) |  | 0.845
10 | Cc1cc(N2CCN(C(=O)c3ccc4oc(C(C)C)nc4c3)CC2)cc(C)n1 | 0.821 | 
11 | Cc1c[nH]c(C(=O)N2C[C@H]3OC(=O)N(CCCc4ccc(F)cc4)[C@H]3C2)n1 | 0.885 | 
12 | COC(=O)CCC(=O)N1CCC(C(=O)Nc2ccc(-c3cccc(C)c3)cc2)CC1 |  | 0.351
13 | COC(=O)CCCC(=O)N1CCCC(CNS(=O)(=O)c2ccc(OC)cc2)C1 (stereo unspecified) |  | 0.861
14 | Cc1cc(C)nc(CCNC(=O)C2CCC(=O)N(CCc3ccccn3)C2)n1 (stereo unspecified) |  | 1.14
15 | NC(=O)CCNC(=O)CC(c1ccccc1)c1ccc2c(c1)OCO2 (stereo unspecified) | 0.801 | 
16 | O=C(Nc1cccc(-c2cc3ccccc3[nH]2)c1)C1CCN(C(=O)C2CCCO2)CC1 (stereo unspecified) |  | 0.846

Row | Compound | bacterial growth OD600 (polymyxin B 0.75 µg/mL) | bacterial growth OD600 (polymyxin B 1 µg/mL)
17 | O=C1CCC(C(=O)N2CCCC(CCc3cccc(F)c3)C2)=NN1 (stereo unspecified) | 0.812 | 
18 | Cc1ccc(OCCN(C)C(=O)C2CCC(=O)N(Cc3ccccn3)C2)cc1 (stereo unspecified) |  | 0.893
19 | Cc1nc2sccn2c1CN1CCC2(CC1)CC2C(=O)NCCC(c1ccccc1)c1ccccc1 (stereo unspecified) | 0.902 | 
20 | Cc1c(C(=O)N(C)CC(C)C)cnn1-c1ncc2c(n1)-c1ccccc1CC2 | 0.656 | 
21 | Cc1nc(N(C)C2CCCCC2)ncc1C(C)NC(=O)CN1CCCC1=O (stereo unspecified) | 0.827 | 
22 | COc1ccc(OCc2cc(C(=O)N3CCOCC3)n[nH]2)c(Cl)c1 |  | 0.88
23 | COCc1noc(-c2ccc(N3CCCCC3CCCO)nc2)n1 (stereo unspecified) | 0.843 | 
24 | CCNC(=O)c1cn(C(C)CC)cc(C(=O)NCc2ccc(F)c(F)c2)c1=O (stereo unspecified) | 0.19 | 
25 | c1ccc(CCCNc2ccc(-c3nc(C4CC4)no3)cn2)nc1 | 0.773 | 
26 | COCc1noc(-c2ccc(N(C)CC3CCCO3)nc2)n1 (stereo unspecified) |  | 0.935
27 | Cc1ccc(NC2CCCN(C(=O)Cc3nonc3C)C2)cc1C (stereo unspecified) |  | 0.778
28 | Cc1c(CC(=O)NCCc2ccco2)c2c(n1CC1CCCO1)CCCC2=O (stereo unspecified) | 1.03 | 
29 | COCCO[C@H]1[C@H](NC(=O)C(C)C)c2ccccc2C12CCN(C(=O)Cc1cccc(OC)c1)CC2 | 0.851 | 
30 | C=C(C)CN(CC)C(=O)C1CCC(=O)N(CCc2ccc(OC)cc2)C1 (stereo unspecified) |  | 0.931
31 | CCn1cc(CNC(=O)C2CCC(=O)N(CCCc3ccccc3)C2)cn1 (stereo unspecified) |  | 0.775

Reformatted: entries from further up
COCCO[C@H]1[C@H](NC(=O)C(C)C)c2ccccc2C12CCN(C(=O)Cc1cccc(OC)c1)CC2
  bacterial growth OD600 (polymyxin B 0.75 µg/mL): 0.851
C=C(C)CN(CC)C(=O)C1CCC(=O)N(CCc2ccc(OC)cc2)C1 (stereo unspecified)
  bacterial growth OD600 (polymyxin B 1 µg/mL): 0.931
